Test results: paper doi:10.1101/2025.02.01.636027
No constants are given. Whether binding was seen depends on the method and setting. Binding seen in cells or lysates may run through a third protein. Some binding calls cover weakened binding; strength is not graded here.

Target: T1, TNI-cEYFP (Arabidopsis thaliana) (UniProt Q8L6Y1)
T1 sequence: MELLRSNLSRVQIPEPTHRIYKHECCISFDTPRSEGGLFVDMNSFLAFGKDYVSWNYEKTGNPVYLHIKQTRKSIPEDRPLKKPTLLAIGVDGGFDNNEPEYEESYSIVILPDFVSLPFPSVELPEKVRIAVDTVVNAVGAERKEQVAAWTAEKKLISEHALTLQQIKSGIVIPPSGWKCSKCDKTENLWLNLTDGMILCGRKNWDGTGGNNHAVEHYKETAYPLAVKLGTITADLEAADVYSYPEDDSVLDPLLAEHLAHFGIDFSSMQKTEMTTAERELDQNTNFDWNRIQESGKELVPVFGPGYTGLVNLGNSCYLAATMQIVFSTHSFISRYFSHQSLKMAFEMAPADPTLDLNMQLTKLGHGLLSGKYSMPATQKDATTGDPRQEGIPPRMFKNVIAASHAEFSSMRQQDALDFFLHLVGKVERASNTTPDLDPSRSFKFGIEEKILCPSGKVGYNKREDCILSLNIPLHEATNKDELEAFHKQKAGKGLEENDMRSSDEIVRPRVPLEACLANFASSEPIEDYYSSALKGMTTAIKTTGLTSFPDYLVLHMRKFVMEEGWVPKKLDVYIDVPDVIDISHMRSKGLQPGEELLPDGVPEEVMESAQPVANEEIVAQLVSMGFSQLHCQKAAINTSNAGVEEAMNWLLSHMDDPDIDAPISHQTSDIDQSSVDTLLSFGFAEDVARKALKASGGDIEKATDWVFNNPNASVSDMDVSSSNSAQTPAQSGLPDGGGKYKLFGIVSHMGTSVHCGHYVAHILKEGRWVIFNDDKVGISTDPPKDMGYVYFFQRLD
Assay: split reporter

binding: binds
B1: ULT2-nEYFP (protein, UniProt Q8S8I2 1-228)
chain: MERECGSKELFSKEELQEISGVHVGDDYVEVMCGCTSHRYGDAVARLKIFSDGELQITCQCTPACLEDKLTPAAFEKHSERETSRNWRNNVWVFIEGDKVPLSKTVLLRYYNKALKNSNVSKVIHRDEFVGCSTCGKERRFRLRSRGECRMHHDAIAEPNWKCCDYPYDKITCEEEEERGSRKVFRGCTRSPSCKGCTSCVCFGCKLCRFSDCNCQTCLDFTTNAKPI
